Data reported in the supplement of paper PMC6411743.
± gives the standard deviation of the averaged measurements. This is a selection; strong and weak results do not stand in their true shares. Small differences around the control level are noise.

Amino acid sequences for entries named in this document (tags omitted). A change or cut given only in a name is not applied to a line headed by its entry.
UniProt P10412, whole entry: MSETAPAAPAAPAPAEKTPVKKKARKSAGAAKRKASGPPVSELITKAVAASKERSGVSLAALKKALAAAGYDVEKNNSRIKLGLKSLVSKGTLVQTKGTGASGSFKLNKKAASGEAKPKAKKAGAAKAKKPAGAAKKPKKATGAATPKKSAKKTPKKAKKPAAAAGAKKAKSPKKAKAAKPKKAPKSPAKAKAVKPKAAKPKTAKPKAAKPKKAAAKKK
UniProt P06241, whole entry, looked up: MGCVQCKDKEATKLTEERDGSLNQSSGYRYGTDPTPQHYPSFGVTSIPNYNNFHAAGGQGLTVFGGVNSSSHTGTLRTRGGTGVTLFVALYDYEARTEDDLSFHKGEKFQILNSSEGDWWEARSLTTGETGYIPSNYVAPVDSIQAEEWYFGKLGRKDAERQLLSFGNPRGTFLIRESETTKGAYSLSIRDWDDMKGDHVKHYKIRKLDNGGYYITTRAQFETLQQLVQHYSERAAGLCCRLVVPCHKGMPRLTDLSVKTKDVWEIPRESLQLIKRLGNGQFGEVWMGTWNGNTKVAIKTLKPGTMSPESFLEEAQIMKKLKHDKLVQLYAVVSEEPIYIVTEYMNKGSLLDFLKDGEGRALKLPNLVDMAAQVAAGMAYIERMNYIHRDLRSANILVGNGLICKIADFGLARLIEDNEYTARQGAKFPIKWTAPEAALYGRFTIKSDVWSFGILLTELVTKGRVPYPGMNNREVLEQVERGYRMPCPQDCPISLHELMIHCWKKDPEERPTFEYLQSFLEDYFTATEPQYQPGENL
UniProt P00387: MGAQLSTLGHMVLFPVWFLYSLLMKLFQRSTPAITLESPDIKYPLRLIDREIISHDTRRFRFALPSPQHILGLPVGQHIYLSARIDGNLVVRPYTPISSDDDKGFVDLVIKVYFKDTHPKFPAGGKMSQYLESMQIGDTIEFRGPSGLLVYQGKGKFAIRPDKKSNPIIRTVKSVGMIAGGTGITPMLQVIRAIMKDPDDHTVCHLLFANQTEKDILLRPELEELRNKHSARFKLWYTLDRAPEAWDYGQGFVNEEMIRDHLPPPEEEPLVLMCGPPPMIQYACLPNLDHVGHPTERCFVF
UniProt P10644, whole entry: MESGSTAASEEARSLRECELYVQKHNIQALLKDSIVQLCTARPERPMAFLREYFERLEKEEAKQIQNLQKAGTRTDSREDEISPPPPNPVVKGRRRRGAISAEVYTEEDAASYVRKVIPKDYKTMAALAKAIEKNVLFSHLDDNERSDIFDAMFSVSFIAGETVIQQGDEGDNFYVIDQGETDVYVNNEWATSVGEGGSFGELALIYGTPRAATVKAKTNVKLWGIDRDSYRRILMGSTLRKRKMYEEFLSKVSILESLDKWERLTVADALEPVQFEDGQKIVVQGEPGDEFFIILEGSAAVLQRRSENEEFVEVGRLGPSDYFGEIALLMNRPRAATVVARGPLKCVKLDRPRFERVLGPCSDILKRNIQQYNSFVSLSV
UniProt P13051, whole entry: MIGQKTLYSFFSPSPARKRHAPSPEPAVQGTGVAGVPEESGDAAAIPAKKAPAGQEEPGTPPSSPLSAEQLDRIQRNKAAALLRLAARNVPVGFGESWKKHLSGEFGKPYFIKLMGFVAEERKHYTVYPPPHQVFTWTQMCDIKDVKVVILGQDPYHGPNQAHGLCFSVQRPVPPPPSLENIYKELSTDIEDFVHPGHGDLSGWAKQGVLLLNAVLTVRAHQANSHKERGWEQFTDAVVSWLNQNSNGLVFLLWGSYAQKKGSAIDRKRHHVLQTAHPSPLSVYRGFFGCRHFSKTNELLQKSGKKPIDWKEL
UniProt P10747, whole entry: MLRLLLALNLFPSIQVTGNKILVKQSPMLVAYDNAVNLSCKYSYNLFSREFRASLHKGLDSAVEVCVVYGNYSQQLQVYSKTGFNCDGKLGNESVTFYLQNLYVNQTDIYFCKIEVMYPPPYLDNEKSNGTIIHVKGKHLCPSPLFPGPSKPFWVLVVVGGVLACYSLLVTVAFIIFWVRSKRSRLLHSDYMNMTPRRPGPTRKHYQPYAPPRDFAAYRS
UniProt P08758: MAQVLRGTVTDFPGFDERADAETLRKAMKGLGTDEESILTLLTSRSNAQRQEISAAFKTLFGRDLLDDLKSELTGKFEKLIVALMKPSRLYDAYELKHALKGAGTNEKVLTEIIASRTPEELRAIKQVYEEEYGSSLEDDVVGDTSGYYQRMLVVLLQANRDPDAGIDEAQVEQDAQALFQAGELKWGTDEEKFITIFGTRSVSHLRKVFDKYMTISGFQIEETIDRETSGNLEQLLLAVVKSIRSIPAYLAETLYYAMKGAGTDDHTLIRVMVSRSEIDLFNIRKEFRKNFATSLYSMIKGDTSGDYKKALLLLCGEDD
UniProt P09471, whole entry, looked up: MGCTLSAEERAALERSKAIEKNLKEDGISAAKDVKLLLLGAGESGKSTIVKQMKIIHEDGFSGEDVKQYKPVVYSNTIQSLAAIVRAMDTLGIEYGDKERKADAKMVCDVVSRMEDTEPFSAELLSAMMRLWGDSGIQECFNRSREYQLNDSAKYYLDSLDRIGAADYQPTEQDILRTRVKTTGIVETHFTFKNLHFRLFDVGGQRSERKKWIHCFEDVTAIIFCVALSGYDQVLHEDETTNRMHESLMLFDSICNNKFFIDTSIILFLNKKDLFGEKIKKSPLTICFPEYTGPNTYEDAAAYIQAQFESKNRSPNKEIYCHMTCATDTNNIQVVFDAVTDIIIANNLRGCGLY
UniProt P15104, whole entry: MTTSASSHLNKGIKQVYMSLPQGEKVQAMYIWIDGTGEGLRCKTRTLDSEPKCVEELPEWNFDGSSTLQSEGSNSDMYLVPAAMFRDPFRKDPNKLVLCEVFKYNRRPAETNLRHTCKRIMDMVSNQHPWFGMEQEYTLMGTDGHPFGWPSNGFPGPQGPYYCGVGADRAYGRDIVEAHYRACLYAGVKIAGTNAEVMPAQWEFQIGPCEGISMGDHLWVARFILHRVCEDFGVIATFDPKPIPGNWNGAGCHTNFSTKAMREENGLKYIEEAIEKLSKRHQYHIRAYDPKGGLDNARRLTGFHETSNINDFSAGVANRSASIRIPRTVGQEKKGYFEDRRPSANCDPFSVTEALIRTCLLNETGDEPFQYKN
UniProt P11021: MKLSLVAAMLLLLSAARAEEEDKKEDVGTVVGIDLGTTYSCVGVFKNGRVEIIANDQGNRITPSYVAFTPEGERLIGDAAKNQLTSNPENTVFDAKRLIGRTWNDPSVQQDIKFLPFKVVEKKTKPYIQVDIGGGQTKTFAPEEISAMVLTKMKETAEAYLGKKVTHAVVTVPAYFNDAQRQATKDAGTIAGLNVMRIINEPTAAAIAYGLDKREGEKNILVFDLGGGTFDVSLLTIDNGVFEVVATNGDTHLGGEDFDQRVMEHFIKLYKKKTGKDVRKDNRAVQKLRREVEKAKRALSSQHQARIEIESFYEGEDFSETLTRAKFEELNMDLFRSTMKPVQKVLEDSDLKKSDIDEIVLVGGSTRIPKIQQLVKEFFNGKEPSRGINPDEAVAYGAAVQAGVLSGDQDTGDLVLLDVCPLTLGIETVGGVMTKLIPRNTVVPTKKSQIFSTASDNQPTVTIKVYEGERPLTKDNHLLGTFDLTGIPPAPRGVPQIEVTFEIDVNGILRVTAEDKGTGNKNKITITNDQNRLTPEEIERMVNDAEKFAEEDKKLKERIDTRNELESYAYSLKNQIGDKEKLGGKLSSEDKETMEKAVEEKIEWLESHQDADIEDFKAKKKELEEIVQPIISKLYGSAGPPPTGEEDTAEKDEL
UniProt O95857: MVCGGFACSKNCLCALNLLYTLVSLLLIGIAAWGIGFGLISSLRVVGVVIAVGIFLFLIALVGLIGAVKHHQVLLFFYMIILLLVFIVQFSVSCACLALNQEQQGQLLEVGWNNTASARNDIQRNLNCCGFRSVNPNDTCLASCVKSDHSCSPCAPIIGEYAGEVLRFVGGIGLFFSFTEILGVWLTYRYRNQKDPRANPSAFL
UniProt P0C7T5: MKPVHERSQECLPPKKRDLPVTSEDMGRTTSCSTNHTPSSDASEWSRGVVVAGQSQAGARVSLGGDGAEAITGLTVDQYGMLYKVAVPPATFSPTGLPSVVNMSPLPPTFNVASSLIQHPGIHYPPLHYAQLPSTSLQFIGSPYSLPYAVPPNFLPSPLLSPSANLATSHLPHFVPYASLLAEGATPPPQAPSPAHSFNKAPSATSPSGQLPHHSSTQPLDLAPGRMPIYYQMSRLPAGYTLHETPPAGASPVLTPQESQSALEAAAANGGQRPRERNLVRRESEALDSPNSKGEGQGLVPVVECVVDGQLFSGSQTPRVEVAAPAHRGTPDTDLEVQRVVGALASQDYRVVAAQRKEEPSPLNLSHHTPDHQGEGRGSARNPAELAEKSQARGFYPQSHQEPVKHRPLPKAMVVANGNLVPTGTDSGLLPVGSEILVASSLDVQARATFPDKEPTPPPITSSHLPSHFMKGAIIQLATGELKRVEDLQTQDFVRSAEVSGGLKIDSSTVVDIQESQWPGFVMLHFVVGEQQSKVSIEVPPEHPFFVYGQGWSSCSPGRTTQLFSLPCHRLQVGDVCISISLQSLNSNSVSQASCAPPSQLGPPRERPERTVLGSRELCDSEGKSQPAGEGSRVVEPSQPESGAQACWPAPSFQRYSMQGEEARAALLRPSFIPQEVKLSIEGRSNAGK
UniProt P16219: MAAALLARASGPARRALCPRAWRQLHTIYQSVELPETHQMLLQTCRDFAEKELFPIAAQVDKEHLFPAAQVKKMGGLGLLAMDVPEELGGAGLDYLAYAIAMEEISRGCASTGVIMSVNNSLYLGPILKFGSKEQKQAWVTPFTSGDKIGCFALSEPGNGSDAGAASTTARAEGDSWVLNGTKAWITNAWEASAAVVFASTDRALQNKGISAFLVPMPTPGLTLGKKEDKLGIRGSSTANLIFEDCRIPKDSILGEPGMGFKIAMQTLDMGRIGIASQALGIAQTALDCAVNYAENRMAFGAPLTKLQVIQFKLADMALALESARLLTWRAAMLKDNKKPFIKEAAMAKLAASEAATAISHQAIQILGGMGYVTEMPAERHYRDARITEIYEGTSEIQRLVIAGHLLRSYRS
UniProt O95777: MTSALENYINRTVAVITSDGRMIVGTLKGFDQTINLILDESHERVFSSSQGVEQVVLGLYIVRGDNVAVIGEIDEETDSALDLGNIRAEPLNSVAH
UniProt P11831: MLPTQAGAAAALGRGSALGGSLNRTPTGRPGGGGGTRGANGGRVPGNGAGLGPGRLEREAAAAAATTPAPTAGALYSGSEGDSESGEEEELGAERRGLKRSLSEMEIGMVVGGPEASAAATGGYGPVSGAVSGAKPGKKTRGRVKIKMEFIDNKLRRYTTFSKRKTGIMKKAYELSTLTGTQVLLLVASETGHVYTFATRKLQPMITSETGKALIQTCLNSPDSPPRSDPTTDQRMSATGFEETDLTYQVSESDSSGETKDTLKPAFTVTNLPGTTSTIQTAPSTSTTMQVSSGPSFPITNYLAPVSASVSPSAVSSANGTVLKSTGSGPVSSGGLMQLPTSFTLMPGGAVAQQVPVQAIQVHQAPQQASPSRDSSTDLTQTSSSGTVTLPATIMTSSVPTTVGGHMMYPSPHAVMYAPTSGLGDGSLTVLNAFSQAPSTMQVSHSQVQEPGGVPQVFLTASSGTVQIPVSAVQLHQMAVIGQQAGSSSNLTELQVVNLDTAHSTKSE
UniProt P11171, whole entry: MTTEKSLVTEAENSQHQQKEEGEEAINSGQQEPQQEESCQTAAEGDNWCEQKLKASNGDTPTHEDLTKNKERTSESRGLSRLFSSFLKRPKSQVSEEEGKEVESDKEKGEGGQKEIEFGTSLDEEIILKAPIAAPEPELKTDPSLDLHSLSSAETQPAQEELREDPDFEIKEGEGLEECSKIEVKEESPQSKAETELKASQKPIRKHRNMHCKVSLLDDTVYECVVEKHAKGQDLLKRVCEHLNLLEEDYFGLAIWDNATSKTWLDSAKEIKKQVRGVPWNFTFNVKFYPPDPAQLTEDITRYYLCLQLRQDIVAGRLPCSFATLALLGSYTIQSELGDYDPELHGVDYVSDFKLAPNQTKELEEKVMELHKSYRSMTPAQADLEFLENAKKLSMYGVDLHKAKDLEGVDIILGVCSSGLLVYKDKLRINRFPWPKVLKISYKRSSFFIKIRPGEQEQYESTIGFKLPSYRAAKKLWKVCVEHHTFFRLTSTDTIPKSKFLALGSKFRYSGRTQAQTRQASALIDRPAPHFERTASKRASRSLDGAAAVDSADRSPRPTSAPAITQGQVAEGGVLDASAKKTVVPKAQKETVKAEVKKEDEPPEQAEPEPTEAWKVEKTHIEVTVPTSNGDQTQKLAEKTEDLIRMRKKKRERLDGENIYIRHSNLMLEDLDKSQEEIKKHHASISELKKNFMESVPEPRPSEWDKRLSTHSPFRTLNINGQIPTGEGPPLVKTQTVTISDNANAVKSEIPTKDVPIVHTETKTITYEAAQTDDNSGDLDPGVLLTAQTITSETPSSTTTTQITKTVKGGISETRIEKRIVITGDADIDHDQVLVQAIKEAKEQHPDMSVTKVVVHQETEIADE

Compound: Nc1ncnc2c1ncn2[C@@H]1O[C@H](COP(=O)(O)OP(=O)(O)NP(=O)(O)O)[C@@H](O)[C@H]1O [adenylyl imidodiphosphate]
Assay: NP40-soluble protein abundance relative to vehicle (solubility fold change) (ratio); higher = more soluble protein in presence of AMP-PNP
Conditions: concentration: 0.1mM
Procedure, shortened: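 Data come from three independent experiments in which Dounce-homogenised Jurkat crude lysate was treated at eight concentrations from 0.1 to 10 mM. Treatment ran 10 min at room temperature and then 3 min at 37 °C, after which 0.8% NP40 and benzonase were added for 60 min at 4 °C before ultracentrifugation. The supernatant underwent TMT labelling and LC-MS/MS, and vsn-normalised intensities were expressed as fold change against the detergent-processed vehicle in each replicate.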

Q: With HIST1H1E (UniProt P10412) as the target, how does the NP40-soluble protein abundance read?
A: Its NP40-soluble protein abundance is 1.02 ± 0.071.

Q: Fyn (UniProt P06241) was tested. Which NP40-soluble protein abundance did it give?
A: Its NP40-soluble protein abundance is 1.01 ± 0.042.

Q: With GLA (UniProt P06280) as the target, how does the NP40-soluble protein abundance read?
A: The NP40-soluble protein abundance was 0.991 ± 0.047.

Q: With UniProt P00387 and related entries as the target, how does the NP40-soluble protein abundance read?
A: Its NP40-soluble protein abundance is 1.01 ± 0.015.

Q: For UniProt P16298 and related entries, which NP40-soluble protein abundance is on record?
A: Its NP40-soluble protein abundance is 0.975 ± 0.016.

Q: Which NP40-soluble protein abundance does the source give for PRKAR1A (UniProt P10644) here?
A: The NP40-soluble protein abundance was 1.04 ± 0.032.

Q: With IGF2R (UniProt P11717) as the target, how does the NP40-soluble protein abundance read?
A: The NP40-soluble protein abundance was 0.986 ± 0.017.

Q: How did the NP40-soluble protein abundance turn out when UniProt P13051 and related entries was run?
A: The NP40-soluble protein abundance was 0.9957 ± 0.0097.

Q: Which NP40-soluble protein abundance does the source give for UniProt P10747 and related entries here?
A: The NP40-soluble protein abundance was 1 ± 0.011.

Q: With ANXA5 (UniProt P08758) as the target, how does the NP40-soluble protein abundance read?
A: Its NP40-soluble protein abundance is 1.05 ± 0.053.

Q: ETFA (UniProt P13804) was tested. Which NP40-soluble protein abundance did it give?
A: The NP40-soluble protein abundance was 0.999 ± 0.038.

Q: For UniProt P04234, which NP40-soluble protein abundance is on record?
A: The NP40-soluble protein abundance was 1.028 ± 0.0075.

Q: UniProt P09471-2 was tested. Which NP40-soluble protein abundance did it give?
A: The NP40-soluble protein abundance was 0.982 ± 0.015.

Q: How did the NP40-soluble protein abundance turn out when UniProt P06239 and related entries was run?
A: The NP40-soluble protein abundance was 1.01 ± 0.02.

Q: Which NP40-soluble protein abundance does the source give for UniProt P04083 and related entries here?
A: The NP40-soluble protein abundance was 1.01 ± 0.02.

Q: LCP1 (UniProt P13796) was tested. Which NP40-soluble protein abundance did it give?
A: Its NP40-soluble protein abundance is 0.942 ± 0.07.

Q: For EPHX1 (UniProt P07099), which NP40-soluble protein abundance is on record?
A: Its NP40-soluble protein abundance is 0.958 ± 0.052.

Q: GLUL (UniProt P15104) was tested. Which NP40-soluble protein abundance did it give?
A: Its NP40-soluble protein abundance is 0.966 ± 0.014.

Q: HSPA5 (UniProt P11021) was tested. Which NP40-soluble protein abundance did it give?
A: The NP40-soluble protein abundance was 0.982 ± 0.042.

Q: With TSPAN13 (UniProt O95857) as the target, how does the NP40-soluble protein abundance read?
A: Its NP40-soluble protein abundance is 0.993 ± 0.013.

Q: With UniProt O95747 as the target, how does the NP40-soluble protein abundance read?
A: The NP40-soluble protein abundance was 1.01 ± 0.041.

Q: How did the NP40-soluble protein abundance turn out when ATXN1L (UniProt P0C7T5) was run?
A: The NP40-soluble protein abundance was 1.02 ± 0.024.

Q: With ACADS (UniProt P16219) as the target, how does the NP40-soluble protein abundance read?
A: The NP40-soluble protein abundance was 1.01 ± 0.037.

Q: Which NP40-soluble protein abundance does the source give for UniProt O95834 and related entries here?
A: The NP40-soluble protein abundance was 1.002 ± 0.01.

Q: Which NP40-soluble protein abundance does the source give for UniProt O95777 and related entries here?
A: Its NP40-soluble protein abundance is 1.01 ± 0.028.

Q: How did the NP40-soluble protein abundance turn out when SRF (UniProt P11831) was run?
A: Its NP40-soluble protein abundance is 0.973 ± 0.013.

Q: For UniProt P11171 and related entries, which NP40-soluble protein abundance is on record?
A: The NP40-soluble protein abundance was 0.984 ± 0.011.

Q: UniProt O96020 and related entries was tested. Which NP40-soluble protein abundance did it give?
A: The NP40-soluble protein abundance was 1.04 ± 0.028.
